Consider two substances from paper PMC6082945.

Amino acid sequences for entries named in this document (tags omitted).
UniProt P29351: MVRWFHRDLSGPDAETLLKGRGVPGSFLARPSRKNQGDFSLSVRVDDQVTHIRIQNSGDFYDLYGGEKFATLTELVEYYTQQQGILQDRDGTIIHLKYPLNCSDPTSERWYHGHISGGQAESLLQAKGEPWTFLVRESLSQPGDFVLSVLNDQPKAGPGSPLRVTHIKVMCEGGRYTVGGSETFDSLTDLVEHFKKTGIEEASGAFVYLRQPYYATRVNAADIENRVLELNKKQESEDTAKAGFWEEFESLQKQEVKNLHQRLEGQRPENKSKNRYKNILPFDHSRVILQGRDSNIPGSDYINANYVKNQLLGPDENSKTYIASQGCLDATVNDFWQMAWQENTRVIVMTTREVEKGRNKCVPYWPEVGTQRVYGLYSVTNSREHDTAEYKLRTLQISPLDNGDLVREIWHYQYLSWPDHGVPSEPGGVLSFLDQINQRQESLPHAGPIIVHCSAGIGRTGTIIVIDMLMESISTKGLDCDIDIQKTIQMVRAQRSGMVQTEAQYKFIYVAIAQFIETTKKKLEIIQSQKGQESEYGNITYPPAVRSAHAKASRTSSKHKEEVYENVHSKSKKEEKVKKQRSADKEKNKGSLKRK
UniProt P41241: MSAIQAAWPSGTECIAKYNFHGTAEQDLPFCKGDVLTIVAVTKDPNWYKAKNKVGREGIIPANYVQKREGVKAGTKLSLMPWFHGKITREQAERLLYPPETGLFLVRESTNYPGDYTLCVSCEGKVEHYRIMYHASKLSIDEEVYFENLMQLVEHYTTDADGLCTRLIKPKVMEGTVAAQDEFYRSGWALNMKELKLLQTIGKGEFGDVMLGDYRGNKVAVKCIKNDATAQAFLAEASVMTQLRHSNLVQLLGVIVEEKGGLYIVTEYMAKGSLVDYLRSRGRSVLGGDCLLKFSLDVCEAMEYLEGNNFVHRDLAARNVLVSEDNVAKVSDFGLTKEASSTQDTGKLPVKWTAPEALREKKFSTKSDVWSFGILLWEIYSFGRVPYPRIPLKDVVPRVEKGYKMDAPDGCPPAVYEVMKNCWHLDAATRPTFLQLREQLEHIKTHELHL

Assay [1] addresses protein phosphatase SHP-1 (mouse (endogenous in BMMCs)) (UniProt P29351). The assay is described as follows: co-IP; endogenous proteins of nonactivated or antigen-activated (250 ng/ml) BMMCs; lysis on ice in 25 mM Tris-HCl pH 7.5, 140 mM NaCl, 1 mM Na3VO4, 2 mM EDTA, protease inhibitors, 0.5% Triton X-100; antibodies to LYN, CSK or SHP-1 prebound to UltraLink-immobilized protein A; immunoblot.

Assay [2] has as its target C-terminal Src kinase (CSK) (mouse (endogenous in BMMCs)) (UniProt P41241). The description is as above.

Results are given in words; binding and its absence hold for the method and conditions named. Binding seen in cells or lysates may run through a third protein. Some results given as binding are weak or reduced against the parent protein; the word gives no strength.

In the case of “C-terminal Src kinase (CSK) (from UniProt P41241 1-450) (enzyme)”, the binding result in assay [1] is “binds”.

“protein phosphatase SHP-1 (from UniProt P29351 1-595) (enzyme)”: in assay [2], the binding result is on record as “binds”.
